Drawing on article PMC4695026, this text covers binding for four molecules.

Amino acid sequences for entries named in this document (tags omitted).
UniProt Q96J94: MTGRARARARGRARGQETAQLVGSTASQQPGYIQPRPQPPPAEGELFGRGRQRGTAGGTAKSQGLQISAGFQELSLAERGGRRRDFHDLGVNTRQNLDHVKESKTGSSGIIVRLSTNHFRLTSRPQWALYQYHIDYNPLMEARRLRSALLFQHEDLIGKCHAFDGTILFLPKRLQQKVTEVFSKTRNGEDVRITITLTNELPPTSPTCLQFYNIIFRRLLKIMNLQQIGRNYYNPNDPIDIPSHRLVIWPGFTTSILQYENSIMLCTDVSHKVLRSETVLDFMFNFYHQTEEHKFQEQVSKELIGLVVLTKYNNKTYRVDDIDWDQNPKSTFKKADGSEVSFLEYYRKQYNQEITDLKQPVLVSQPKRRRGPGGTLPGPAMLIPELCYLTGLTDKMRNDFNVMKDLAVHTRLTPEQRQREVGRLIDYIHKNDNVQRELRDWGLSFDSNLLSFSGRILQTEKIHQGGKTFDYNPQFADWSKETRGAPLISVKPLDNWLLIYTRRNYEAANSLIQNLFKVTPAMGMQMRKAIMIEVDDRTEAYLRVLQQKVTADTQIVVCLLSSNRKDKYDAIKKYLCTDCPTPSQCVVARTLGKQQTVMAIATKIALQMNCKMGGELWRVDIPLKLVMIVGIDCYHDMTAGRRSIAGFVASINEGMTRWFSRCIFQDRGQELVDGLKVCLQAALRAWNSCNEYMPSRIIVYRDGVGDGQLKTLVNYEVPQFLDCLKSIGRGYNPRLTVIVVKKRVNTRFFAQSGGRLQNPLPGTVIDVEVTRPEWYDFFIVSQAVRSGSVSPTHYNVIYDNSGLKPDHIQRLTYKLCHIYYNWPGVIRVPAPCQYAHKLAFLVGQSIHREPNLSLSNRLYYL

Experiment [1] deals with T1, Stathmin1 (endogenous) (human (endogenous in HeLa, HepG2, MCF7)) (UniProt P16949).
T1 sequence: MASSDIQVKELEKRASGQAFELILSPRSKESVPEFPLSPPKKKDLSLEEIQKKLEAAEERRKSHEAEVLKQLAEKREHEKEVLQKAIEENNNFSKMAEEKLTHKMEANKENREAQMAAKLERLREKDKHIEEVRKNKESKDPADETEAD
The experiment can be described thus: co-IP; cells transfected with tagged constructs (Myc-tagged PIWIL1 or its deletion mutants, GFP-tagged STMN1 mutants); lysate with 1-3 ug antibody or IgG overnight, protein A+G agarose beads 2 h; Western blot.

For experiment [2], the target named is T1, Stathmin1 (endogenous) (human (endogenous in HeLa, HepG2, MCF7)). Briefly: co-IP; cytosolic (C)/nuclear (N) fractionation of cells.
Experiment [3] deals with T2, HA-tagged STMN1 (UniProt P16949).
T2 sequence: T1 sequence
Briefly: co-IP; two-step immunoprecipitation: HeLa cells transfected with control vector or HA-STMN1; first IP with anti-HA, elution with 4xHA peptide, second IP with anti-PIWIL1 or IgG.

For experiment [4], the target named is T1, Stathmin1 (endogenous) (human (endogenous in HeLa, HepG2, MCF7)). Briefly: co-IP; endogenous proteins; cell lysate (HeLa, HepG2, MCF7) incubated with 1-3 ug target antibody or IgG overnight, then protein A+G agarose beads 2 h; Western blot; in some panels HeLa cells transfected with PIWIL1 or shPIWIL1 vectors. (In general: Immunoblotting shows a protein as a band on a membrane.)

Experiment [5] concerns the target T3, STMN1 (in vitro translated) (UniProt P16949).
T3 sequence: T1 sequence
The experiment can be described thus: co-IP; PIWIL1 and STMN1 made separately with the TNT Quick Coupled in vitro transcription/translation system (30°C, 90 min); 30 ul of each mixed in 200 ul lysis buffer for co-IP.

The target in experiment [6] is T1, Stathmin1 (endogenous) (human (endogenous in HeLa, HepG2, MCF7)). Briefly: co-IP; endogenous proteins; cell lysate (HeLa, HepG2, MCF7) incubated with 1-3 ug target antibody or IgG overnight, then protein A+G agarose beads 2 h; Western blot; in some panels HeLa cells transfected with PIWIL1 or shPIWIL1 vectors. This is another data set of the same source.

Results are given in words; binding and its absence hold for the method and conditions named. Binding seen in cells or lysates may run through a third protein. Some results given as binding are weak or reduced against the parent protein; the word gives no strength. For part of these data: Where a sequence is shown, tags or fusion partners need not be part of it.

“Myc-tagged PIWIL1 (from UniProt Q96J94 1-861)”: the binding result in experiment [1] is “binds”. With “PIWIL1 (endogenous) (from UniProt Q96J94 1-861)”, the binding result in experiment [2], in experiment [3] and in experiment [4] was “binds” in each case. Consider “PIWIL1 (in vitro translated) (from UniProt Q96J94 1-861)”, for which the binding result in experiment [5] was “binds”.

B1: RLIM (enzyme, UniProt Q9NVW2 1-624)
chain: MENSDSNDKGSGDQSAAQRRSQMDRLDREEAFYQFVNNLSEEDYRLMRDNNLLGTPGESTEEELLRRLQQIKEGPPPQNSDENRGGDSSDDVSNGDSIIDWLNSVRQTGNTTRSGQRGNQSWRAVSRTNPNSGDFRFSLEINVNRNNGSQNSENENEPSARRSSGENVENNSQRQVENPRSESTSARPSRSERNSTEALTEVPPTRGQRRARSRSPDHRRTRARAERSRSPLHPMSEIPRRSHHSISSQTFEHPLVNETEGSSRTRHHVTLRQQISGPELLSRGLFAASGTRNASQGAGSSDTAASGESTGSGQRPPTIVLDLQVRRVRPGEYRQRDSIASRTRSRSQTPNNTVTYESERGGFRRTFSRSERAGVRTYVSTIRIPIRRILNTGLSETTSVAIQTMLRQIMTGFGELSYFMYSDSDSEPTGSVSNRNMERAESRSGRGGSGGGSSSGSSSSSSSSSSSSSSSSSSSSPSSSSGGESSETSSDLFEGSNEGSSSSGSSGARREGRHRAPVTFDESGSLPFLSLAQFFLLNEDDDDQPRGLTKEQIDNLAMRSFGENDALKTCSVCITEYTEGNKLRKLPCSHEYHVHCIDRWLSENSTCPICRRAVLASGNRESVV
Consider B1, for which the binding result in experiment [6] is reported as “binds”.
